Structures can show the parent of a compound that is named as a salt. The list shows a part of the results. Single values of this set are uncertain.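 Yeast growth was read as optical density at 600 nm. The two-hybrid strains grew without histidine, so growth needed the Pex3–Pex19 binding; a compound counted as trypanosome-selective if it cut growth of the trypanosome-pair strain by more than 65% and the human-pair strain by less than 65%.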
Test system: human PEX3-PEX19 interaction (yeast two-hybrid)
Experiment: growth inhibition of yeast two-hybrid strain reporting HsPex3-HsPex19 interaction, relative to DMSO; higher = stronger inhibition of human Pex3-Pex19 interaction / growth
Details: 100 µM; 24 h; 3-aminotriazole 10 mM

Compound	growth inhibition [%]
Cc1ccccc1/C=C/C1=NCCN1 [Metrazoline oxalate]	45.4
CC(C)(Oc1ccc(CCNC(=O)c2ccc(Cl)cc2)cc1)C(=O)O [Bezafibrate]	39.6
N[C@@H](Cc1ccc(O)c(I)c1)C(=O)O [3-Iodo-L-tyrosine]	49.8
CCC(=O)c1ccc2c(c1)N(CCCN(C)C)c1ccccc1S2 [Propionylpromazine hydrochloride]	19.7
OCC1OC(n2cnc3c(NC4CCCCC4)ncnc32)C(O)C1O (centres undefined) [N6-Cyclohexyladenosine]	29.1
O=C(c1ccc(OCCN2CCCCC2)cc1)c1c(-c2ccc(O)cc2)sc2cc(O)ccc12 [Raloxifene hydrochloride]	24.8
CN1CCN(CCCN2c3ccccc3Sc3ccc(C(F)(F)F)cc32)CC1 [Trifluoperazine dihydrochloride]	38.2
CN1CCc2ccccc2Cc2[nH]c3ccccc3c2CC1	45
O=C(O)C1=CC(=C(c2ccc(O)c(C(=O)O)c2)c2ccc(O)c(C(=O)O)c2)C=CC1=O [Aurintricarboxylic acid]	50.4
CCCN(CCC)CCc1cccc2c1CC(=O)N2 [Ropinirole hydrochloride]	45.4
O=C1CCc2cc(OCCCCc3nnnn3C3CCCCC3)ccc2N1 [Cilostazol]	21.7
Nc1ncnc2c1ncn2[C@@H]1O[C@H](COP(=O)(O)OP(=O)(O)OP(=O)(O)OP(=O)(O)OC[C@@H]2O[C@H](n3cnc4c(N)ncnc43)C(O)[C@@H]2O)[C@H](O)C1O (some centres undefined) [P1,P4-Di(adenosine-5')tetraphosphate triammonium]	32.4
CCN1CCC[C@H]1CNC(=O)c1c(O)c(Cl)cc(Cl)c1OC [S(+)-Raclopride L-tartrate]	47.4
CC1COc2c(N3CCN(C)CC3)c(F)cc3c(=O)c(C(=O)O)cn1c23 (centres undefined) [Ofloxacin]	48.4
NNc1nncc2ccccc12 [Hydralazine hydrochloride]	47.3
CC[n+]1c(/C=C/C=C2/N(C)c3ccccc3C2(C)C)sc2ccccc21	81.2
CC(C)NCC(O)c1ccc(O)c(O)c1 (single isomer, unassigned; (-)) [(-)-Isoproterenol hydrochloride]	38.3
CC(C)(NS(=O)(=O)c1ccc(Oc2ccc(F)cc2)cc1)C(=O)NO	34.7
O=C(O)CCCCCCCC(=O)O [Azelaic acid]	34.9
Nc1ccc(S(=O)(=O)Nc2ccnn2-c2ccccc2)cc1 [Sulfaphenazole]	38.7

By substructure: the compounds so far with four or more nitrogen atoms (five)
Compound	growth inhibition [%]
OCC1OC(n2cnc3c(NC4CCCCC4)ncnc32)C(O)C1O (centres undefined) [N6-Cyclohexyladenosine]	29.1
O=C1CCc2cc(OCCCCc3nnnn3C3CCCCC3)ccc2N1 [Cilostazol]	21.7
Nc1ncnc2c1ncn2[C@@H]1O[C@H](COP(=O)(O)OP(=O)(O)OP(=O)(O)OP(=O)(O)OC[C@@H]2O[C@H](n3cnc4c(N)ncnc43)C(O)[C@@H]2O)[C@H](O)C1O (some centres undefined) [P1,P4-Di(adenosine-5')tetraphosphate triammonium]	32.4
NNc1nncc2ccccc12 [Hydralazine hydrochloride]	47.3
Nc1ccc(S(=O)(=O)Nc2ccnn2-c2ccccc2)cc1 [Sulfaphenazole]	38.7

The list goes on.

Compound	growth inhibition [%]
CCCCCCCC/C=C\CCCCCCCC(=O)NCCO [N-Oleoylethanolamine]	31.1
CCC(NC(C)C)C(O)c1ccc(O)c(O)c1 (centres undefined) [Isotharine mesylate]	37.7
CC(C)NCC(O)COc1ccc(COCCOC(C)C)cc1 (centres undefined) [Bisoprolol hemifumarate salt]	5
Nc1ncnc2c1ncn2[C@@H]1O[C@@H]2COP(=O)(O)O[C@H]2[C@H]1O [Adenosine 3',5'-cyclic monophosphate]	2.22
CC(N)C(=O)OC(C)(C)Cc1ccc(Cl)cc1 (centres undefined) [Alaproclate hydrochloride]	41.7
CC(=O)[C@]1(O)Cc2c(O)c3c(c(O)c2[C@@H](O[C@H]2C[C@H](N)[C@H](O)[C@H](C)O2)C1)C(=O)c1ccccc1C3=O [Idarubicin]	84
CC1=Nc2ccc(Cl)cc2S(=O)(=O)N1 [Diazoxide]	14.9
Oc1ccc(C2CNCCc3c2cc(O)c(O)c3Cl)cc1 (centres undefined) [Fenoldopam bromide]	-0.318
CCCN[C@H]1CCc2nc(N)sc2C1 [Pramipexole dihydrochloride]	45.8
NCCc1c[nH]cn1 [Histamine dihydrochloride]	45.6
C[C@]12CCC(=O)C=C1CC[C@@H]1[C@@H]2CC[C@@]2(C)[C@H]1CC[C@]2(O)C(=O)CO [Cortexolone]	38.8
CN(C)C(N)=NCCC[C@H](N)C(=O)O [N^G,N^G-Dimethylarginine hydrochloride]	45.3
O=C(O)c1cc(=O)c2ccccc2[nH]1 [Kynurenic acid]	38.9
CNC(=O)[C@H]1O[C@@H](n2cnc3c(NCc4cccc(I)c4)nc(Cl)nc32)[C@H](O)[C@@H]1O [Chloro-IB-MECA]	-2.22
C[C@]12CC[C@@H]3c4ccc(O)cc4C[C@@H](CCCCCCCCC[S+]([O-])CCCC(F)(F)C(F)(F)F)[C@H]3[C@@H]1CC[C@@H]2O (some centres undefined) [Fulvestrant]	35.1
Cc1nc2ccccn2c(=O)c1CCN1CCC(C(=O)c2ccc(F)cc2)CC1 [Pirenperone]	32.1
CCN(CC)CCNC(=O)c1cc(Cl)c(N)cc1OC [Metoclopramide hydrochloride]	44.1
Cc1ccc(-c2cc(C(F)(F)F)nn2-c2ccc(S(N)(=O)=O)cc2)cc1 [Celecoxib]	-2.46
OC[C@H]1NC[C@H](O)[C@@H](O)[C@@H]1O [1-Deoxynojirimycin hydrochloride]	38.5

— the supplement of paper PMC8326762, “A Small Molecule Inhibitor of Pex3–Pex19 Interaction Disrupts Glycosome Biogenesis and Causes Lethality in Trypanosoma brucei” (Frontiers in Cell and Developmental Biology, 2021)
